Measurements as given in publication PMC9330073, “Cargo Recognition Mechanisms of Yeast Myo2 Revealed by AlphaFold2-Powered Protein Complex Prediction” (Biomolecules, 2022).
Residue numbers refer to the chain shown, from its start. Names may count otherwise. Results are given in words; binding and its absence hold for the method and conditions named. For some of these results: Binding can be weak; no strength is given. For some of these results: Where a sequence is shown, tags or fusion partners need not be part of it.

By UniProt entry, the sequences of proteins in these tests, tags left out. Where a name states a change or a piece, a line headed by the entry shows the natural chain unless it says otherwise.
UniProt P19524: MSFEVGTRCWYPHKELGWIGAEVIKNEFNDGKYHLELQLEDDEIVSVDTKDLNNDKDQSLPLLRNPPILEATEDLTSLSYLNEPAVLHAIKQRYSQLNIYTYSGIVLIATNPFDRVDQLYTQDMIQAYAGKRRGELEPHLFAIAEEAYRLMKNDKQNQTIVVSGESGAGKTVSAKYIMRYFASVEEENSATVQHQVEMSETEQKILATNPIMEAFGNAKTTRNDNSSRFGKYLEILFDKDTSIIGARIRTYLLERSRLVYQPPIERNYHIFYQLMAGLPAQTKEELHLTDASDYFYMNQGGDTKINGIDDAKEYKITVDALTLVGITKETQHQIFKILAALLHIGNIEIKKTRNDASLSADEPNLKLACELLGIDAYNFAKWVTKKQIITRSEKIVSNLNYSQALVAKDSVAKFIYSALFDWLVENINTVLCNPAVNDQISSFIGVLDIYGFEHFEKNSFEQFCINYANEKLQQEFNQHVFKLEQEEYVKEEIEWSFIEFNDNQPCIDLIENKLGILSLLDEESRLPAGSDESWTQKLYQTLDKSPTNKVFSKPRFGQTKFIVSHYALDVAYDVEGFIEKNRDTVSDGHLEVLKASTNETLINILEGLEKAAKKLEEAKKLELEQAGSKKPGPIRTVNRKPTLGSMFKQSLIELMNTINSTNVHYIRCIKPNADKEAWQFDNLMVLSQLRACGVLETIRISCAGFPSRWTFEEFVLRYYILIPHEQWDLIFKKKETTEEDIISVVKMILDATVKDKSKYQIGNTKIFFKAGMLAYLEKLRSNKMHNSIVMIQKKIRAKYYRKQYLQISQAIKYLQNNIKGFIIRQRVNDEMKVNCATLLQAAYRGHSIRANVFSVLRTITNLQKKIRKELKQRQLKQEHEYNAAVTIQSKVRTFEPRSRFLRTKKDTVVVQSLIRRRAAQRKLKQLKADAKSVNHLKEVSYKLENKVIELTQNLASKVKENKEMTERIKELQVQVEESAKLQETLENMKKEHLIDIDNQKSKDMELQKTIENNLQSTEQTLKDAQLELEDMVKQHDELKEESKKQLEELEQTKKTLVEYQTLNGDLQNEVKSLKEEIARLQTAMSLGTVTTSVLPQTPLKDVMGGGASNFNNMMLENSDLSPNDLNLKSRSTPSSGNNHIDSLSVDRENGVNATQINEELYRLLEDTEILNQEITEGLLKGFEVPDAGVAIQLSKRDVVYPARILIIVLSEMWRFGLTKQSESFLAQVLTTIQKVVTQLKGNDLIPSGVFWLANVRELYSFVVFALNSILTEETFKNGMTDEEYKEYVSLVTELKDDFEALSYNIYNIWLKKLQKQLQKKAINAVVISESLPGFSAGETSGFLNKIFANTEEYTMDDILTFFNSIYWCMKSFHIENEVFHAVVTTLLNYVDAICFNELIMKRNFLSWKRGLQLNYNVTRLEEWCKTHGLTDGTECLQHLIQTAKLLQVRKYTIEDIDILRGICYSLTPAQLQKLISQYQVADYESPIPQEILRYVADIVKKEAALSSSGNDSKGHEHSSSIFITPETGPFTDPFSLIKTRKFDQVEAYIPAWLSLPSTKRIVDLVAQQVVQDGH

Assays:
[1] = target: T1, Kar9^C-MIS K473E (Saccharomyces cerevisiae (strain S288c)) (UniProt P32526); test: condition: 500 μM Myo2-GTD in the syringe, 50 μM Kar9-MIS in the cell; ITC; 500 μM Myo2-GTD in the syringe titrated into 50 μM Kar9-MIS or Pea2-MIS in the cell, 25 °C; one-site binding model; both purified
T1 sequence: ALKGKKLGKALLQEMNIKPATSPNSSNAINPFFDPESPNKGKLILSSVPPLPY

[2] = target: T2, Kar9^C-MIS (Myo2-interacting sequence in the C-terminal region of Kar9) (Saccharomyces cerevisiae (strain S288c)) (UniProt P32526); test: ITC; 500 μM Myo2-GTD in the syringe titrated into 50 μM Kar9-MIS or Pea2-MIS in the cell, 25 °C; one-site binding model; both purified
T2 sequence: T1 sequence with E14K

[3] = target: T3, GST-Pea2-CC1 F261Q (Saccharomyces cerevisiae (strain S288c)) (UniProt P40091); test: condition: 500 μM Myo2-GTD in the syringe, 50 μM Pea2-MIS in the cell; ITC; 500 μM Myo2-GTD in the syringe titrated into 50 μM Kar9-MIS or Pea2-MIS in the cell, 25 °C; one-site binding model; both purified
T3 sequence: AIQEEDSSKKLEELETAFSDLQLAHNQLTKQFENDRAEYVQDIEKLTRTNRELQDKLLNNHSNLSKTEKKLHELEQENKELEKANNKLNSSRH

[4] = target: T4, GST-Pea2-CC1 R270E (Saccharomyces cerevisiae (strain S288c)) (UniProt P40091); test: as above
T4 sequence: T3 sequence with Q27F, R36E

[5] = target: Myo2-GTD (globular tail domain of Myo2) (Saccharomyces cerevisiae (strain S288c)) (UniProt P19524); test: ITC; summary of affinities of cargo adaptors and Myo2-GTD variants (Figure 5B, Figure S7); which protein was in the syringe is not told for Smy1-MIS; both purified
[6] = target: Myo2-GTD (globular tail domain of Myo2) (Saccharomyces cerevisiae (strain S288c)) (UniProt P19524); test: SEC-MALS; 100 μL of 100 μM protein on Superdex 200 Increase 10/300 GL; 50 mM Tris-HCl pH 7.5, 100 mM NaCl, 1 mM EDTA, 1 mM DTT; both purified
[7] = target: Myo2-GTD (globular tail domain of Myo2) (Saccharomyces cerevisiae (strain S288c)) (UniProt P19524); test: condition: 200 μM Vac17-MIS in the syringe, 20 μM Myo2-GTD in the cell; ITC; 200 μM Vac17-MIS in the syringe titrated into 20 μM Myo2-GTD in the cell, 25 °C; one-site binding model; both purified

## Myo2-GTD (globular tail domain of Myo2) (from UniProt P19524) (domain or fragment)
[1]
  binding: no binding
[2]
  binding: binds
[3]
  binding: no binding
[4]
  binding: no binding

## SSSSIATTGSQESFVARPFKKGLNLHSIKVTSSTPK (domain or fragment) [Smy1-MIS (Myo2-interacting sequence of Smy1)]
[5]
  binding: binds

B1: Vac17-MIS (Myo2-interacting sequence of Vac17) (domain or fragment, Saccharomyces cerevisiae (strain S288c), UniProt P25591 112-157, looked up)
chain: PNEAPNDSPQSQSTRSSLGSFQPRPLKIIERQRLCMVTPSKPPKKS
notes: Vac17 (vacuole-related protein 17), S. cerevisiae, region containing residues 112-157 (MIS); Named Trx-tagged in the light scattering; also called Trx-Vas17-MIS; Vac17-MIS wild-type; source: E. coli BL21(DE3), purified (Ni2+-NTA, size exclusion chromatography); not shown: Trx, N-terminal, kept
[6]
  binding: binds

## PNEAPNDSPQSQSTRSSLGSFQPEPLKIIERQRLCMVTPSKPPKKS (domain or fragment, UniProt P25591 112-157) [Vac17-MIS R135E]
[7]
  binding: no binding

## PNEAPNDSPQSQSTRSSLGSFQPRPLKIIEEQRLCMVTPSKPPKKS (domain or fragment, UniProt P25591 112-157) [Vac17-MIS R142E]
[7]
  binding: no binding

## PNEAPNDSPQSQSTRSSLGSFQPRPQKIIERQRLCMVTPSKPPKKS (domain or fragment, UniProt P25591 112-157) [Vac17-MIS L137Q]
[7]
  binding: no binding

## PNEAPNDSPQSQSTRSSLGSFQPRPLKQIERQRLCMVTPSKPPKKS (domain or fragment, UniProt P25591 112-157) [Vac17-MIS I139Q]
[7]
  binding: no binding
